The source of these data is patent US20140275226.

Chains of the proteins cited; added tags and fusions are not shown. Chains listed by the source or under a name are the forms on record and can include a tag or linker.
Factor IXa / factor IX (Homo sapiens), one chain, as listed by the source, chain 1 of 2: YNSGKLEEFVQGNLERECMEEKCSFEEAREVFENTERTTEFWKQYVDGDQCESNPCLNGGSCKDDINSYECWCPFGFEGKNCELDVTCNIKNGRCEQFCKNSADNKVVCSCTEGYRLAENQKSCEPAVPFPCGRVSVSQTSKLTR
Factor Xa / factor X (Homo sapiens), one chain, as listed by the source, chain 2 of 2: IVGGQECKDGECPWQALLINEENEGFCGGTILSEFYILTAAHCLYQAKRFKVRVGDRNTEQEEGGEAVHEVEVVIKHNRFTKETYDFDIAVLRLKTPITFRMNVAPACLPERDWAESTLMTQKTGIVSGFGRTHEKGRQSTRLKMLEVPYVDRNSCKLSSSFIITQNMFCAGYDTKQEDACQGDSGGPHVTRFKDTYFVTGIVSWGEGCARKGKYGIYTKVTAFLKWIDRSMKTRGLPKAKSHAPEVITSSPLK
Factor Xa / factor X (Homo sapiens), one chain, as listed by the source, chain 1 of 2: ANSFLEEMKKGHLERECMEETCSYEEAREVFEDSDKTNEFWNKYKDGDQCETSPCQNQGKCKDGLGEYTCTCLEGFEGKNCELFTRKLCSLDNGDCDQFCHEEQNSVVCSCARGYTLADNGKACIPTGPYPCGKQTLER
Factor IXa / factor IX (Homo sapiens), one chain, as listed by the source, chain 2 of 2: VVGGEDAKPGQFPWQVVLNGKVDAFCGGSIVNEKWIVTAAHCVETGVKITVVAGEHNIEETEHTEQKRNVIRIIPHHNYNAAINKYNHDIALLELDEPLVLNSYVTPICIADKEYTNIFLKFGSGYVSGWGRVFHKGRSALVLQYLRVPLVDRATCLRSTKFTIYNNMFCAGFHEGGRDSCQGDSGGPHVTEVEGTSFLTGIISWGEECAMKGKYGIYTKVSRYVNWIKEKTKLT
Factor VIIa / factor VII (Homo sapiens), one chain, as listed by the source, chain 1 of 2: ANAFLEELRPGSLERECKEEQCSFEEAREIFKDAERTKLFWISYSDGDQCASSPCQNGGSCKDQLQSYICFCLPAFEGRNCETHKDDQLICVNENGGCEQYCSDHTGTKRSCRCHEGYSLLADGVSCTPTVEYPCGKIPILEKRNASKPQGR
Factor VIIa / factor VII (Homo sapiens), one chain, as listed by the source, chain 2 of 2: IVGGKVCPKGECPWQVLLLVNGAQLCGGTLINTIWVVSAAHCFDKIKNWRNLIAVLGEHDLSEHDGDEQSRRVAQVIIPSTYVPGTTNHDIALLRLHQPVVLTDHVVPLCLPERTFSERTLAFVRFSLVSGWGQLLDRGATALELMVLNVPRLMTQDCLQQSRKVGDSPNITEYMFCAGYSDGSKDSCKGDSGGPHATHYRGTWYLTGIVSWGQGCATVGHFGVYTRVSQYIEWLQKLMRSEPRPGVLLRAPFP

For some assays here: No signal at the amounts used counts as a negative. For some assays here: Construct, isoform or probe ends are uncertain for at least one entry. For some assays here: At least one result comes from cells or an extract, where the contact may be indirect.

In data set [1] the test system is Factor IXa / factor IX (Homo sapiens). The data set can be described thus: inhibition of the protein. The conditions noted are these: 2'-F C and U (all pyrimidines); 120 nM, 1 pM TF: no appreciable effect on thrombin generation (peak 219.57 nM vs 221.56 no aptamer); protein in an extract; variant of 9.3T.
The test system of data set [2] is Factor Xa / factor X (Homo sapiens). As to the kind of experiment: inhibition of the protein. As to conditions: 2'-F C and U (all pyrimidines); 1000 nM, 5 pM TF: no appreciable effect on thrombin generation (peak 391.12 nM vs 325.43 no aptamer); protein in an extract; variant of 11F7T.
The target of data set [3] is Prothrombin (factor II) (Homo sapiens) (UniProt P00734). As to the kind of experiment: binding assay. The conditions noted are these: 2'-F C and U (all pyrimidines), CITED Bompiani 2012, apparent Kd, protein in an extract.
The target is the same in data set [4]. As to the kind of experiment: inhibition of the protein. As to conditions: 2'-F C and U (all pyrimidines); 5000 nM, 5 pM TF: no appreciable effect on thrombin generation (peak 312.12 nM vs 325.43 no aptamer); protein in an extract; variant of R9D-14T (R9D-14T7).
The test system of data set [5] is Factor VIIa / factor VII (Homo sapiens). The data set can be described thus: inhibition of the protein. The conditions noted are these: 2'-F C and U (all pyrimidines); 30 nM, 5 pM TF: no appreciable effect on thrombin generation (peak 357.63 nM vs 325.43 no aptamer); protein in an extract; variant of 7S-1.

Consider “AUGGGGACUGUGCCGCGUAAUGCUGCCUCCCCAU [9.3Tmut]”, for which the “functional effect of the aptamer” value in data set [1] was “not active”.
As for “GAGAGCCCCAGCGAGAUAAUACUUGUACCCGCUCUU [11F7Tmut]”, the “functional effect of the aptamer” value in data set [2] is “not active”.
In the case of “GGCGGUCGAUCACACAGUUCAAACGUAAUAAGCCAAUGUACGAGGCAGACGACUCGCC [R9D-14T (R9D-14T7)]”, in data set [3], the Kd came to 10 nM.
Take “GGCGGUCGAUCACACAGUUCAAACGUAAUAAGCCGGCGUACGAGGCAGACGACUCGCC [R9D-14Tmut]”: the “functional effect of the aptamer” value in data set [4] is “not active”.
For the sequence “GGGAGGACGAUGCGGACUCCUCCAAGCGACCAACAUCGGUCUUAUUUCAGAUCAACAGACGACUCGCUGAGGAUCCGAGA [7S-1mut]”, in data set [5], the “functional effect of the aptamer” value is “not active”.
